Record: PubChem BioAssay AID720710 (VTT Finland, 2013)

Screen: 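siRNAs sensitising CCNE1-overexpressing U-2 OS cells to replication stress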 (primary screen)
Cells: human U-2 OS bone cancer cells, parental and a cyclin E (CCNE1) overexpressing line
Knock-down reagent: single siRNA against human genes, 1 µM siRNA in the printed spot mix
Time to read-out: 67 h
Treatment: half the arrays: hydroxyurea 2 mM for 16 h, then 3 h recovery; other arrays untreated
Measurement: 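EdU click signal imaged per DAPI-stained nucleus at 67 h; each spot divided by its subgrid median, then z-scored relative to non-targeting control spots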
Direction: EdU z-score, cyclin E line, hydroxyurea and EdU z-score, parental, hydroxyurea and EdU z-score, cyclin E line, untreated: higher = more DNA synthesis than non-targeting controls
Shown is a random part of about 1,380 reagents. 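One array per condition without replicates; hydroxyurea arrays received 2 mM for 16 h plus 3 h recovery.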 The numbers tell different reagents against one gene apart. Not all columns of the deposit are shown.

| gene | reagent | EdU z-score, cyclin E line, hydroxyurea | EdU z-score, parental, hydroxyurea | EdU z-score, cyclin E line, untreated |
| --- | --- | --- | --- | --- |
| LOC731751 | 1 | 0.0952 | -0.767 | -6.22 |
| LOC731751 | 2 | 1.9 | 0.806 | -3.57 |
| CCNO | 1 | -0.643 | -0.538 | -3.01 |
| CCNO | 2 | 1.82 | 0.964 | 1.51 |
| PML | 1 | -0.963 | 0.2 | -0.794 |
| PML | 2 | 0.0565 | 4.28 | 0.261 |
| TMX1 | 1 | -0.984 | 0.00648 | -1.72 |
| TMX1 | 2 | 0.854 | 1.09 | -1.49 |
| APEX1 | 1 | -2.14 | -0.599 | -0.428 |
| APEX1 | 2 | 0.881 | 2.68 | 0.0932 |
| REC8 | 1 | -2.24 | -2.45 | -1.3 |
| REC8 | 2 | 0.663 | -1.51 | 0.177 |
| KAT2A | 1 | -2.29 | -1.77 | -1.52 |
| KAT2A | 2 | -1.34 | 1.83 | -0.802 |
| SETD3 | 1 | -1.28 | -5.06 | -1.67 |
| SETD3 | 2 | 0.734 | 0.855 | -0.852 |
| EREG | 1 | -0.799 | -0.81 | -4.96 |
| EREG | 2 | 0.773 | -0.266 | -1.89 |
| KAT5 | 1 | -1.53 | -2.11 | -0.639 |
| KAT5 | 2 | -0.149 | 1.79 | -0.477 |
| RFC5 | 1 | -0.756 | -0.312 | -3.54 |
| RFC5 | 2 | 2.57 | 1.51 | 0.581 |
| MED1 | 1 | 0.272 | -1.73 | -0.188 |
| MED1 | 2 | 0.314 | 2.26 | 0.0243 |
| KDM3A | 1 | -0.702 | -0.329 | -2.43 |
| KDM3A | 2 | -0.352 | 1.34 | 0.0514 |
| LIG4 | 1 | -0.502 | 0.657 | -2.14 |
| LIG4 | 2 | 0.468 | 0.857 | -0.666 |
| DKC1 | 1 | -0.769 | 0.658 | -1.62 |
| DKC1 | 2 | -0.296 | 0.934 | 0.075 |
| TERF2 | 1 | -2.29 | -2.91 | -1.33 |
| TERF2 | 2 | -0.0542 | -0.33 | -0.651 |
| TSPYL2 | 1 | 0.36 | 1.8 | -1.1 |
| TSPYL2 | 2 | 0.867 | 2.6 | -0.771 |
| MCPH1 | 1 | -2.27 | -3.46 | -0.555 |
| MCPH1 | 2 | -0.341 | -2 | 0.862 |
| SETD1A | 1 | -0.469 | -0.577 | -2.13 |
| SETD1A | 2 | 0.863 | 4.84 | -0.242 |
| PPP2R3B | 1 | -0.957 | 0.33 | -2.01 |
| PPP2R3B | 2 | 0.889 | 0.538 | -0.365 |
| NFIC | 1 | -3.64 | -0.0608 | -7.9 |
| NFIC | 2 | 0.294 | 1.87 | -1.29 |
| PPP2CA | 1 | -1.45 | 0.729 | -0.342 |
| PPP2CA | 2 | 3.36 | 1.12 | 0.268 |
| NDC80 | 1 | 0.137 | -2.26 | -1.89 |
| NDC80 | 2 | 0.311 | -0.577 | 1 |
| SMG1 | 1 | -1.06 | -1.03 | -4.49 |
| SMG1 | 2 | -0.835 | -0.535 | 0.947 |
| DLGAP5 | 1 | -1.26 | 2.82 | -0.557 |
| DLGAP5 | 2 | 1.01 | 3.47 | -0.243 |
| CCN2 | 1 | 0.418 | 0.735 | -2.95 |
| CCN2 | 2 | 0.419 | 1.51 | -0.325 |
| BABAM2 | 1 | -1.36 | -1.88 | -1.41 |
| BABAM2 | 2 | 1.42 | 0.941 | -0.0705 |
| POLA1 | 1 | 0.365 | -0.694 | -2.13 |
| POLA1 | 2 | 0.617 | 4.19 | -1.76 |
| SLX1B | 1 | -0.85 | -0.783 | -1.14 |
| SLX1B | 2 | -0.0928 | 0.736 | -0.273 |

In a second layout: entries from further up
gene,reagent,"EdU z-score, cyclin E line, hydroxyurea","EdU z-score, parental, hydroxyurea","EdU z-score, cyclin E line, untreated"
SMG1,1,-1.06,-1.03,-4.49
SMG1,2,-0.835,-0.535,0.947
DLGAP5,1,-1.26,2.82,-0.557
DLGAP5,2,1.01,3.47,-0.243
CCN2,1,0.418,0.735,-2.95
CCN2,2,0.419,1.51,-0.325
BABAM2,1,-1.36,-1.88,-1.41
BABAM2,2,1.42,0.941,-0.0705
POLA1,1,0.365,-0.694,-2.13
